The assay deals with H1 hemagglutinin (A/Solomon Islands/3/2006) (Influenza A virus A/Solomon Islands/3/2006 (H1N1)). As to the kind of experiment: yeast surface display titration.

Results are given in words; binding and its absence hold for the method and conditions named.

B1: 52alt1-3 (designed binder)
chain: GIVNVPNPNTTKYQQLARSAIAIYNNHQNAHLEFVENLNVKEQVSYGAMYYITLAATDDAGKKKIYKAKVGVVESAGWVGVEEFKLV
For B1, the binding entry was “no binding”.
